B1: Granulocyte colony-stimulating factor (protein, UniProt P09919 31-207, looked up)
Granulocyte …: TPLGPASSLPQSFLLKCLEQVRKIQGDGAALQEKLVSECATYKLCHPEELVLLGHSLGIPWAPLSSCPSQALQLAGCLSQLHSGLFLYQGLLQALEGISPELGPTLDTLQLDVADFATTIWQQMEELGMAPALQPTQGAMPAFASAFQRRAGGVLVASHLQSFLEVSYRVLRHLAQP
B2: Fructose-bisphosphate aldolase A (protein, UniProt P04075 2-364, looked up)
Fructose-bisphosphate …: PYQYPALTPEQKKELSDIAHRIVAPGKGILAADESTGSIAKRLQSIGTENTEENRRFYRQLLLTADDRVNPCIGGVILFHETLYQKADDGRPFPQVIKSKGGVVGIKVDKGVVPLAGTNGETTTQGLDGLSERCAQYKKDGADFAKWRCVLKIGEHTPSALAIMENANVLARYASICQQNGIVPIVEPEILPDGDHDLKRCQYVTEKVLAAVYKALSDHHIYLEGTLLKPNMVTPGHACTQKFSHEEIAMATVTALRRTVPPAVTGITFLSGGQSEEEASINLNAINKCPLLKPWALTFSYGRALQASALKAWGGKKENLKAAQEEYVKRALANSLACQGKYTPSGQAGAAASESLFVSNHAY
B3: Ephrin-B2 (protein, UniProt P52799 28-333, looked up)
Ephrin-B2: IVLEPIYWNSSNSKFLPGQGLVLYPQIGDKLDIICPKVDSKTVGQYEYYKVYMVDKDQADRCTIKKENTPLLNCAKPDQDIKFTIKFQEFSPNLWGLEFQKNKDYYIISTSNGSLEGLDNQEGGVCQTRAMKILMKVGQDASSAGSTRNKDPTRRPELEAGTNGRSSTTSPFVKPNPGSSTDGNSAGHSGNNILGSEVALFAGIASGCIIFIVIIITLVVLLLKYRRRHRKHSPQHTTTLSLSTLATPKRSGNNNGSEPSDIIIPLRTADSVFCPHYEKVSGDYGHPVYIVQEMPPQSPANIYYKV
B4: HemK methyltransferase family member 2 (protein, UniProt Q9Y5N5 1-214, looked up)
Methyltransferase HEMK2: MAGENFATPFHGHVGRGAFSDVYEPAEDTFLLLDALEAAAAELAGVEICLEVGSGSGVVSAFLASMIGPQALYMCTDINPEAAACTLETARCNKVHIQPVITDLVKGLLPRLTEKVDLLVFNPPYVVTPPQEVGSHGIEAAWAGGRNGREVMDRFFPLVPDLLSPRGLFYLVTIKENNPEEILKIMKTKGLQGTTALSRQAGQETLSVLKFTKS
B5: Ephrin-B1 (protein, UniProt P98172 28-346, looked up)
Ephrin-B1: LAKNLEPVSWSSLNPKFLSGKGLVIYPKIGDKLDIICPRAEAGRPYEYYKLYLVRPEQAAACSTVLDPNVLVTCNRPEQEIRFTIKFQEFSPNYMGLEFKKHHDYYITSTSNGSLEGLENREGGVCRTRTMKIIMKVGQDPNAVTPEQLTTSRPSKEADNTVKMATQAPGSRGSLGDSDGKHETVNQEEKSGPGASGGSSGDPDGFFNSKVALFAAVGAGCVIFLLIIIFLTVLLLKLRKRHRKHTQQRAAALSLSTLASPKGGSGTAGTEPSDIIIPLRTTENNYCPHYEKVSGDYGHPVYIVQEMPPQSPANIYYKV
B6: Granulocyte colony-stimulating factor receptor (protein, UniProt Q99062 25-836, looked up)
Granulocyte …: ECGHISVSAPIVHLGDPITASCIIKQNCSHLDPEPQILWRLGAELQPGGRQQRLSDGTQESIITLPHLNHTQAFLSCCLNWGNSLQILDQVELRAGYPPAIPHNLSCLMNLTTSSLICQWEPGPETHLPTSFTLKSFKSRGNCQTQGDSILDCVPKDGQSHCCIPRKHLLLYQNMGIWVQAENALGTSMSPQLCLDPMDVVKLEPPMLRTMDPSPEAAPPQAGCLQLCWEPWQPGLHINQKCELRHKPQRGEASWALVGPLPLEALQYELCGLLPATAYTLQIRCIRWPLPGHWSDWSPSLELRTTERAPTVRLDTWWRQRQLDPRTVQLFWKPVPLEEDSGRIQGYVVSWRPSGQAGAILPLCNTTELSCTFHLPSEAQEVALVAYNSAGTSRPTPVVFSESRGPALTRLHAMARDPHSLWVGWEPPNPWPQGYVIEWGLGPPSASNSNKTWRMEQNGRATGFLLKENIRPFQLYEIIVTPLYQDTMGPSQHVYAYSQEMAPSHAPELHLKHIGKTWAQLEWVPEPPELGKSPLTHYTIFWTNAQNQSFSAILNASSRGFVLHGLEPASLYHIHLMAASQAGATNSTVLTLMTLTPEGSELHIILGLFGLLLLLTCLCGTAWLCCSPNRKNPLWPSVPDPAHSSLGSWVPTIMEEDAFQLPGLGTPPITKLTVLEEDEKKPVPWESHNSSETCGLPTLVQTYVLQGDPRAVSTQPQSQSGTSDQVLYGQLLGSPTSPGPGHYLRCDSTQPLLAGLTPSPKSYENLWFQASPLGTLVTPAPSQEDDCVFGPLLNFPLLQGIRVHGMEALGSF
B7: Formimidoyltransferase-cyclodeaminase (protein, UniProt O95954 1-541, looked up)
Formimidoyltransferase-cyclode …: MSQLVECVPNFSEGKNQEVIDAISGAITQTPGCVLLDVDAGPSTNRTVYTFVGPPECVVEGALNAARVASRLIDMSRHQGEHPRMGALDVCPFIPVRGVSVDECVLCAQAFGQRLAEELDVPVYLYGEAARMDSRRTLPAIRAGEYEALPKKLQQADWAPDFGPSSFVPSWGATATGARKFLIAFNINLLGTKEQAHRIALNLREQGRGKDQPGRLKKVQGIGWYLDEKNLAQVSTNLLDFEVTALHTVYEETCREAQELSLPVVGSQLVGLVPLKALLDAAAFYCEKENLFILEEEQRIRLVVSRLGLDSLCPFSPKERIIEYLVPERGPERGLGSKSLRAFVGEVGARSAAPGGGSVAAAAAAMGAALGSMVGLMTYGRRQFQSLDTTMRRLIPPFREASAKLTTLVDADAEAFTAYLEAMRLPKNTPEEKDRRTAALQEGLRRAVSVPLTLAETVASLWPALQELARCGNLACRSDLQVAAKALEMGVFGAYFNVLINLRDITDEAFKDQIHHRVSSLLQEAKTQAALVLDCLETRQE
B8: Growth arrest-specific protein 1 (protein, UniProt P54826 40-318, looked up)
Growth arrest-specific …: LAHGRRLICWQALLQCQGEPECSYAYNQYAEACAPVLAQHGGGDAPGAAAAAFPASAASFSSRWRCPSHCISALIQLNHTRRGPALEDCDCAQDENCKSTKRAIEPCLPRTSGGGAGGPGAGGVMGCTEARRRCDRDSRCNLALSRYLTYCGKVFNGLRCTDECRTVIEDMLAMPKAALLNDCVCDGLERPICESVKENMARLCFGAELGNGPGSSGSDGGLDDYYDEDYDDEQRTGGAGGEQPLDDDDGVPHPPRPGSGAAASGGRGDLPYGPGRRSS
B9: Gamma-enolase (protein, UniProt P09104 2-434, looked up)
Gamma-enolase: SIEKIWAREILDSRGNPTVEVDLYTAKGLFRAAVPSGASTGIYEALELRDGDKQRYLGKGVLKAVDHINSTIAPALISSGLSVVEQEKLDNLMLELDGTENKSKFGANAILGVSLAVCKAGAAERELPLYRHIAQLAGNSDLILPVPAFNVINGGSHAGNKLAMQEFMILPVGAESFRDAMRLGAEVYHTLKGVIKDKYGKDATNVGDEGGFAPNILENSEALELVKEAIDKAGYTEKIVIGMDVAASEFYRDGKYDLDFKSPTDPSRYITGDQLGALYQDFVRDYPVVSIEDPFDQDDWAAWSKFTANVGIQIVGDDLTVTNPKRIERAVEEKACNCLLLKVNQIGSVTEAIQACKLAQENGWGVMVSHRSGETEDTFIADLVVGLCTGQIKTGAPCRSERLAKYNQLMRIEEELGDEARFAGHNFRNPSVL
B10: Ephrin-A4 (protein, UniProt P52798 26-170, looked up)
Ephrin-A4: LRHVVYWNSSNPRLLRGDAVVELGLNDYLDIVCPHYEGPGPPEGPETFALYMVDWPGYESCQAEGPRAYKRWVCSLPFGHVQFSEKIQRFTPFSLGFEFLPGETYYYISVPTPESSGQCLRLQVSVCCKERKSESAHPVGSPGES

What follows are molecules tested on proteins in oral lavage (assay: Abundance of proteins in human oral lavage (SomaLogic), TABLE 1). Conditions: abundance in oral lavage; high bleeders (gingivitis), baseline.
Assay type: in vivo

Going from B1 to B2, the “Means (Original Scale) High bleeder BL” value rises from 504 to 255824.

Compared with B3, B4 is higher in “Means (Original Scale) High bleeder BL” value: 2152 for the first, 2638 for the second.

First: B5
Second: B6
The “Means (Original Scale) High bleeder BL” value of the first is higher: 5419 for the first, 327 for the second.

Compared with B7, B8 is higher in “Means (Original Scale) High bleeder BL” value: 202 for the first, 2909 for the second.

Compared with B9, B10 is higher in “Means (Original Scale) High bleeder BL” value: 420 for the first, 1384 for the second.

Same assay, conditions: abundance in oral lavage; high bleeders, week 4 of investigative products

Going from B1 to B2, the “Means (Original Scale) High bleeder W4” value rises from 268 to 179719.

Going from B3 to B4, the “Means (Original Scale) High bleeder W4” value rises from 1295 to 1424.

Compared with B5, B6 is lower in “Means (Original Scale) High bleeder W4” value: 3253 for the first, 219 for the second.

First: B7
Second: B8
The “Means (Original Scale) High bleeder W4” value of the first is lower: 110 for the first, 1272 for the second.

Compared with B9, B10 is higher in “Means (Original Scale) High bleeder W4” value: 244 for the first, 729 for the second.

Same assay, conditions: abundance in oral lavage; low bleeders (healthy), baseline

First: B1
Second: B2
The “Means (Original Scale) Low bleeder BL” value of the first is lower: 121 for the first, 33774 for the second.

First: B3
Second: B4
The “Means (Original Scale) Low bleeder BL” value of the first is higher: 1236 for the first, 689 for the second.

First: B5
Second: B6
The “Means (Original Scale) Low bleeder BL” value of the first is higher: 1760 for the first, 166 for the second.

First: B7
Second: B8
The “Means (Original Scale) Low bleeder BL” value of the first is lower: 89 for the first, 433 for the second.

Going from B9 to B10, the “Means (Original Scale) Low bleeder BL” value rises from 200 to 350.

Same assay, conditions: oral lavage; high bleeders vs low bleeders at baseline

Compared with B1, B2 is higher in “Fold Change High bleeder BL vs Low bleeder BL” value (“Fold Change High bleeder BL” below): 3.52 for the first, 18.59 for the second.

Going from B3 to B4, the “Fold Change High bleeder BL” value rises from 1.91 to 3.51.

Compared with B5, B6 is lower in “Fold Change High bleeder BL” value: 2.92 for the first, 1.90 for the second.

Compared with B7, B8 is higher in “Fold Change High bleeder BL” value: 2.01 for the first, 5.48 for the second.

Going from B9 to B10, the “Fold Change High bleeder BL” value rises from 2.36 to 3.60.

Same assay, conditions: oral lavage; week 4 of investigative products vs baseline, high bleeders

Compared with B1, B2 is higher in “Fold Change High bleeder W4 vs High bleeder BL” value (“Fold Change High bleeder W4” for short): 0.61 for the first, 0.68 for the second.

First: B3
Second: B4
The “Fold Change High bleeder W4” value of the first is lower: 0.59 for the first, 0.62 for the second.

Compared with B5, B6 is higher in “Fold Change High bleeder W4” value: 0.64 for the first, 0.70 for the second.

Going from B7 to B8, the “Fold Change High bleeder W4” value falls from 0.59 to 0.49.

Compared with B9, B10 is lower in “Fold Change High bleeder W4” value: 0.62 for the first, 0.55 for the second.
